# Measurements taken from patent US20210283220A1, “ANTIBODY MOLECULE-DRUG CONJUGATES AND USES THEREOF” (priority 2017, published 2021).
# Some of these results come from one statement about several compounds together.
# System: P. aeruginosa ATCC 27853
# Assay: Resistance rate determination (standard and micro-dotting protocols)
# Assay type: cell-based, Pseudomonas aeruginosa
# Conditions: all concentrations tested
# Excerpt: . These rates are considered favorable when compared to published rates in the 10^−5 to 10^−8 range. […]
substance,measurement,value
GIGKFLKKAKKFGKAFVKILKK-NH2 (C-terminal amide) [Peptide P32],"resistance rate, micro-dotting protocol",10^−7 to 10^−9
